Experimental data reported in patent US20050187581A1, “Methods of treating disorders with electric fields” (priority 2000, published 2005).

Columns and labels:
[1] = after 60 min session, n=6, P<0.05

`CN1C(=O)CN=C(c2ccccc2)c2cc(Cl)ccc21` [diazepam] was tested, and the “Increase of plasma ACTH level by 30 min restraint, post vs pre” value (restrained rats; diazepam 1 mg/kg B.W. i.p.) was 2.3 fold, the “Plasma ACTH level, pre-restraint” value (restrained rats; diazepam 1 mg/kg B.W. i.p. 30 min before restraint, mean ± S.E.) was 358 ± 73 pg/mL and the “Plasma ACTH level, post-restraint” value (restrained rats; diazepam 1 mg/kg B.W. i.p., 30 min after start of restraint, mean ± S.E.) was 810 ± 121 pg/mL. The “Effect on restraint-induced increase of plasma glucose level” value (ovariectomized rats; after 60 min session, n=6) was “tendency to suppress”, the “Plasma lactate levels compared to the restraint alone group” value (ovariectomized rats; [1]) was “significantly lower” and the “Plasma pyruvate levels compared to sham EF exposure group” value (ovariectomized rats; [1]) was “significantly lower”. The “Elevation of plasma ACTH level, post- vs pre-session” value (ovariectomized rats; restraint and diazepam, diazepam 30 min before start of session) was 13.7 fold.
